In experiment [1] the target is T1, P^182–195-R9 (mouse).
T1 sequence (peptide): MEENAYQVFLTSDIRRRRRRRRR
The experiment in a line: far-Western, overlay or dot blot; nitrocellulose pieces spotted with 8 nmol synthetic peptide, blocked with 5% skimmed milk in PBS, incubated with cell-free in vitro translated GFP-RGS (PURExpress); bound GFP protein detected with antibodies; only the target purified.

Protein sequences, listed by entry. Tags and fused reporters are not part of them. Lines headed by an entry give the natural chain unless they say otherwise; changes in a name come on top. Chains listed by the source or under a name are the forms on record and can include a tag or linker. Residues count along the entry.
HA-Cdt 2–345 (O88566, residues 2-345): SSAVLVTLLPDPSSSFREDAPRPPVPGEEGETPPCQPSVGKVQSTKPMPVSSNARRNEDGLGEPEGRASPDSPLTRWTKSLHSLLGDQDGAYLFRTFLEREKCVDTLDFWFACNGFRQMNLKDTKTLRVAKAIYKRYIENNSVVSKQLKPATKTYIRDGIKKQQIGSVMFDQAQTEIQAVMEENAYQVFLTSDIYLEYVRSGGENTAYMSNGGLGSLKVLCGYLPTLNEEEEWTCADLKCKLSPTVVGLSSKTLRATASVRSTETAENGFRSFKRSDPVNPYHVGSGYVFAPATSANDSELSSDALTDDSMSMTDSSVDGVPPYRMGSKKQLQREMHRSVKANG
GST-RGS Cdt (O88566, residues 67-208): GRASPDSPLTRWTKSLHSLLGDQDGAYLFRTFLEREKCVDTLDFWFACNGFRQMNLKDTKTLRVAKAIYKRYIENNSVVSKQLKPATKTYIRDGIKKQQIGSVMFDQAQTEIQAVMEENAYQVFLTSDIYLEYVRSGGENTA
in vitro-translated GFP-RGS (O88566, residues 81-200): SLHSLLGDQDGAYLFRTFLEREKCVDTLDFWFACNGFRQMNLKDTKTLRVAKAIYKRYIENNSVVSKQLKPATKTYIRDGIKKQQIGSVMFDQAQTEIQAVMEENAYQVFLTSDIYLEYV
GFP-Cdt 2–345 Y93S (O88566, form named): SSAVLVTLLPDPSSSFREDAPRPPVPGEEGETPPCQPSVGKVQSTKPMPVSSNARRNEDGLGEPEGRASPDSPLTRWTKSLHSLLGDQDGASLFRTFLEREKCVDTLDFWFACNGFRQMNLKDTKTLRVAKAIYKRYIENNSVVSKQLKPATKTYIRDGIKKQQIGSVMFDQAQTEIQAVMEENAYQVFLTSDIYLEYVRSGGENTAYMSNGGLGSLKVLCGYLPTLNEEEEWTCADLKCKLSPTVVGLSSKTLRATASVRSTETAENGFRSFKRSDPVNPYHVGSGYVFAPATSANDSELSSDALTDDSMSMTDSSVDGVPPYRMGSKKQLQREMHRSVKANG
GFP-Cdt 2–345 F112R (O88566, form named): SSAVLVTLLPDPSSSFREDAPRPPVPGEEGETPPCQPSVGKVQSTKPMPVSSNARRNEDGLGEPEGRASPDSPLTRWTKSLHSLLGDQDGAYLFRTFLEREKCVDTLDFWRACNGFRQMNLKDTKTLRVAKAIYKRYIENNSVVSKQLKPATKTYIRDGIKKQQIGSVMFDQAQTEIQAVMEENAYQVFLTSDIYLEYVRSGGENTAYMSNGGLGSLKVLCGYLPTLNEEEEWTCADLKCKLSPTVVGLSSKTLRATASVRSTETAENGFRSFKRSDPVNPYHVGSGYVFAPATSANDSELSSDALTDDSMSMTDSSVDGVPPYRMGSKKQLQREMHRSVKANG
GST-RGS Cdt QV-PS (O88566, form named): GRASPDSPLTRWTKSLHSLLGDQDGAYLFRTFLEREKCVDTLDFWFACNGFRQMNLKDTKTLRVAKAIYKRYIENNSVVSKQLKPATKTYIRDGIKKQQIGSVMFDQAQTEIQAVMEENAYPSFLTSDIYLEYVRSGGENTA

The next experiment deals with HA-Cdt 2–345 (mouse) (UniProt O88566). The experiment in a line: native gel or EMSA; lysates of HEK293T cells transfected with HA-Cdt 2–345 alone or together with P^182–195; PAGE under non-denaturing conditions, Western blot for HA.
The target in experiment [2] is GFP-Cdt 2–345 Y93S (mouse) (UniProt O88566). The experiment in a line: native gel or EMSA; lysates of U2OS cells transfected with GFP-tagged Cdt 2–345 constructs; PAGE under non-denaturing conditions, Western blot for GFP. A general note: Mobility shift assays separate free from complexed probe on a gel.
Experiment [3] has as its target GFP-Cdt 2–345 F112R (mouse) (UniProt O88566). The experiment is described as above.
For experiment [4], the target named is GFP-Cdt 2–345 (mouse) (UniProt O88566). Described as above.
The target in experiment [5] is T1, P^182–195-R9 (mouse). The experiment in a line: far-Western, overlay or dot blot; nitrocellulose pieces spotted with 8 nmol synthetic peptide, blocked with 5% skimmed milk in PBS, incubated with lysates of transfected HEK293T cells; bound GFP proteins detected with antibodies; only the target purified.
Experiment [6] addresses GFP-Cdt 2–345 (mouse) (UniProt O88566). The experiment in a line: sucrose density gradient ultracentrifugation; lysates of HEK293T cells transfected with GFP-Cdt 2–345 or its QV-PS mutant together with GFP; linear 12.5-50% (w/v) sucrose gradient, 50,000 r.p.m., 16 h, 25 °C; 20 fractions, Western blot for GFP.
Experiment [7] concerns the target GST-RGS Cdt QV-PS (mouse) (UniProt O88566). The experiment in a line: pull-down; extract of HEK293T cells expressing GFP-SAMP aliquoted and supplemented with equal amounts of GST-tagged proteins and glutathione beads; rotation at 4 °C; Western blot; only the target purified. On the technique in general: A western blot detects proteins with antibodies after separation by electrophoresis.

A further experiment concerns the target GST-RGS Cdt (mouse) (UniProt O88566). The description is as above.

No constants are given. Whether binding was seen depends on the method and setting. For some of these results: In cells and extracts the contact can be indirect. Some binding calls cover weakened binding; strength is not graded here. For some of these results: Where a sequence is shown, tags or fusion partners need not be part of it.

“in vitro-translated GFP-RGS (from UniProt O88566 81-200) (domain or fragment)”: the binding result with P^182–195-R9 (mouse) [1] is listed as “binds”.

Turning to “HA-Cdt 2–345 (from UniProt O88566 2-345) (domain or fragment)”, in the experiment with HA-Cdt 2–345 (mouse), the binding result is recorded as “binds”.

“GFP-Cdt 2–345 Y93S (from UniProt O88566 2-345) (domain or fragment)”: in [2], the binding result is recorded as “binds”.

As to “GFP-Cdt 2–345 F112R (from UniProt O88566 2-345) (domain or fragment)”, in experiment [3], the binding result is reported as “binds”.

Consider “GFP-Cdt 2–345 (from UniProt O88566 2-345) (domain or fragment)”, for which the binding entry with GFP-Cdt 2–345 (mouse) [4], with P^182–195-R9 (mouse) [5] and in the experiment with GFP-Cdt 2–345 (mouse) [6] was “binds” each time.

B1: GFP-SAMP (domain or fragment, UniProt Q61315 1516-1591)
chain: QKDVELRIMPPVQENDNGNETESEQPEESNENQDKEVEKPDSEKDLLDDSDDDDIEILEECIISAMPTKSSRKAKK
For the molecule B1, the binding entry (in [7]; with GST-RGS Cdt (mouse)) was “binds” throughout.

Regarding MEENAYQVFLTSDI [peptide P^182–195], in the experiment with HA-Cdt 2–345 (mouse), the binding entry was “binds”.

The values above are taken from publication PMC6751202, “An aggregon in conductin/axin2 regulates Wnt/β-catenin signaling and holds potential for cancer therapy” (Nature Communications, 2019).
